Values of other authors in patent publication US20210388002A1, “DIMETHOXYBENZENE COMPOUND ANALOGS, METHODS FOR ANALYZING SAID COMPOUNDS AND STANDARD PRODUCTS OF SAID COMPOUNDS” (TAIHO PHARMACEUTICAL CO., LTD., priority 2018, published 2021).

Key:
[1] = background statement, PTL 1 to 5; cited from earlier work
[2] = system: fibroblast growth factor receptor (FGFR); conditions: background statement, PTL 1 to 5; cited from earlier work

Q: Which antitumor activity [1] does the source give for `C=CC(=O)N1CC[C@H](n2nc(C#Cc3cc(OC)cc(OC)c3)c3c(N)ncnc32)C1` [compound A, (S)-1-(3-(4-amino-3-((3,5-dimethoxyphenyl)ethynyl)-1H-pyrazolo[3,4-d]pyrimidin-1-yl)pyrrolidin-1-yl)-2-propen-1-one] here?
A: Its antitumor activity is “exhibiting antitumor activity”.

Q: And the “inhibitory activity on the fibroblast growth factor receptor (FGFR)” value [2]?
A: Its value is “excellent inhibitory activity”.
